Experimental data reported in ChEMBL document CHEMBL5674883, “The Heterochromatin Landscape in Migrating Cells and the Importance of H3K27me3 for Associated Transcriptome Alterations” (Cells, 2018).
Further values from the same series stand in other lists.

Protein sequences, listed by entry. Tags and fused reporters are not part of them.
UniProt Q61188, whole entry: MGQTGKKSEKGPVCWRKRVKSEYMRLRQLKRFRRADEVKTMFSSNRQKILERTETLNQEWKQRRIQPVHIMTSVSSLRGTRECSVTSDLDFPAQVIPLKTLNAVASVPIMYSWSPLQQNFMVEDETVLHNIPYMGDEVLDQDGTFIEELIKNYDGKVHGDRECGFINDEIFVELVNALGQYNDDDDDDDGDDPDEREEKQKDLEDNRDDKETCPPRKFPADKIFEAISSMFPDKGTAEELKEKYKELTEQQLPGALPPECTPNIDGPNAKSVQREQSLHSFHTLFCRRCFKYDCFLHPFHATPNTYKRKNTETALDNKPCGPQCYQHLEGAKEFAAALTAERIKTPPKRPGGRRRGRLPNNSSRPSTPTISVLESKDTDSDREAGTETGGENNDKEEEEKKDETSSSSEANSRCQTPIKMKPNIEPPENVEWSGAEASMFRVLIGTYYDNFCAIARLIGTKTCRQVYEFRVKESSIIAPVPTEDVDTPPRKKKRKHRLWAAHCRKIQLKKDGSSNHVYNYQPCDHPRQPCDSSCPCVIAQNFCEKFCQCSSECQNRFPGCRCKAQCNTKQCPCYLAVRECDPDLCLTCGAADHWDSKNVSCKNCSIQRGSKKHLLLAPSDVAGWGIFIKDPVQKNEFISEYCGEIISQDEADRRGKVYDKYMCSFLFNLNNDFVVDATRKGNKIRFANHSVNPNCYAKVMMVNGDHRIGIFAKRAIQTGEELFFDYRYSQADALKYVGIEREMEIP

What was measured:
Type in all cases: cell-based
[1] = target: T1, RNA polymerase II (Mus musculus) (UniProt P08775+Q8CFI7+P97760+A0A3Q4L2S8+Q80UW8+P61219+P62488+Q923G2+P60898+O08740+Q63871+P62876); assay: Inhibition of RNA polymerase II in mouse B16-F1 migrating cells assessed as fold change in Rnf219-RNA stability at 0.1 mM measured by ChIP-seq analysis relative to control cells
[2] = target: T1, RNA polymerase II (Mus musculus); assay: Inhibition of RNA polymerase II in mouse B16-F1 migrating cells assessed as fold change in Zfp24-RNA stability at 0.1 mM measured by ChIP-seq analysis relative to control cells
[3] = target: T1, RNA polymerase II (Mus musculus); assay: Inhibition of RNA polymerase II in mouse B16-F1 migrating cells assessed as fold change in Rbm15-RNA stability at 0.1 mM measured by ChIP-seq analysis relative to control cells
[4] = target: T1, RNA polymerase II (Mus musculus); assay: Inhibition of RNA polymerase II in mouse B16-F1 migrating cells assessed as fold change in Usp38-RNA stability at 0.1 mM measured by ChIP-seq analysis relative to control cells
[5] = target: T1, RNA polymerase II (Mus musculus); assay: Inhibition of RNA polymerase II in mouse B16-F1 migrating cells assessed as fold change in Eif3a-RNA stability at 0.1 mM measured by ChIP-seq analysis relative to control cells
[6] = target: T1, RNA polymerase II (Mus musculus); assay: Inhibition of RNA polymerase II in mouse B16-F1 migrating cells assessed as fold change in Fer-RNA stability at 0.1 mM measured by ChIP-seq analysis relative to control cells
[7] = target: T1, RNA polymerase II (Mus musculus); assay: Inhibition of RNA polymerase II in mouse B16-F1 migrating cells assessed as fold change in Blm-RNA stability at 0.1 mM measured by ChIP-seq analysis relative to control cells
[8] = target: T1, RNA polymerase II (Mus musculus); assay: Inhibition of RNA polymerase II in mouse B16-F1 migrating cells assessed as fold change in Htatsf1-RNA stability at 0.1 mM measured by ChIP-seq analysis relative to control cells
[9] = target: T1, RNA polymerase II (Mus musculus); assay: Inhibition of RNA polymerase II in mouse B16-F1 migrating cells assessed as fold change in Apopt1-RNA stability at 0.1 mM measured by ChIP-seq analysis relative to control cells
[10] = target: T1, RNA polymerase II (Mus musculus); assay: Inhibition of RNA polymerase II in mouse B16-F1 migrating cells assessed as fold change in Crkl-RNA stability at 0.1 mM measured by ChIP-seq analysis relative to control cells
[11] = target: T1, RNA polymerase II (Mus musculus); assay: Inhibition of RNA polymerase II in mouse B16-F1 migrating cells assessed as fold change in Abcb6-RNA stability at 0.1 mM measured by ChIP-seq analysis relative to control cells
[12] = target: T1, RNA polymerase II (Mus musculus); assay: Inhibition of RNA polymerase II in mouse B16-F1 migrating cells assessed as fold change in Trim11-RNA stability at 0.1 mM measured by ChIP-seq analysis relative to control cells
[13] = target: T1, RNA polymerase II (Mus musculus); assay: Inhibition of RNA polymerase II in mouse B16-F1 migrating cells assessed as fold change in Rbm15b-RNA stability at 0.1 mM measured by ChIP-seq analysis relative to control cells
[14] = target: T1, RNA polymerase II (Mus musculus); assay: Inhibition of RNA polymerase II in mouse B16-F1 migrating cells assessed as fold change in Carnmt1-RNA stability at 0.1 mM measured by ChIP-seq analysis relative to control cells
[15] = target: T1, RNA polymerase II (Mus musculus); assay: Inhibition of RNA polymerase II in mouse B16-F1 migrating cells assessed as fold change in Acbd5-RNA stability at 0.1 mM measured by ChIP-seq analysis relative to control cells
[16] = target: T1, RNA polymerase II (Mus musculus); assay: Inhibition of RNA polymerase II in mouse B16-F1 migrating cells assessed as fold change in Cbln3-RNA stability at 0.1 mM measured by ChIP-seq analysis relative to control cells
[17] = target: T1, RNA polymerase II (Mus musculus); assay: Inhibition of RNA polymerase II in mouse B16-F1 migrating cells assessed as fold change in Rpl7a-RNA stability at 0.1 mM measured by ChIP-seq analysis relative to control cells
[18] = target: T1, RNA polymerase II (Mus musculus); assay: Inhibition of RNA polymerase II in mouse B16-F1 migrating cells assessed as fold change in Aldoc-RNA stability at 0.1 mM measured by ChIP-seq analysis relative to control cells
[19] = target: T1, RNA polymerase II (Mus musculus); assay: Inhibition of RNA polymerase II in mouse B16-F1 migrating cells assessed as fold change in Lrp6-RNA stability at 0.1 mM measured by ChIP-seq analysis relative to control cells
[20] = target: T1, RNA polymerase II (Mus musculus); assay: Inhibition of RNA polymerase II in mouse B16-F1 migrating cells assessed as fold change in Smim12-RNA stability at 0.1 mM measured by ChIP-seq analysis relative to control cells
[21] = target: Histone-lysine N-methyltransferase EZH2 (Mus musculus) (UniProt Q61188); assay: Inhibition of EZH2 in mouse B16-F1 migrating cells assessed as fold change in H3K27me3-buffered regulated Ssfa2-mRNA expression at 3 uM measured by ChIP-seq analysis relative to control cells
[22] = target: Histone-lysine N-methyltransferase EZH2 (Mus musculus) (UniProt Q61188); assay: Inhibition of EZH2 in mouse B16-F1 migrating cells assessed as fold change in H3K27me3-buffered regulated Phf13-mRNA expression at 3 uM measured by ChIP-seq analysis relative to control cells
[23] = target: Histone-lysine N-methyltransferase EZH2 (Mus musculus) (UniProt Q61188); assay: Inhibition of EZH2 in mouse B16-F1 migrating cells assessed as fold change in H3K27me3-buffered regulated Knl1-mRNA expression at 3 uM measured by ChIP-seq analysis relative to control cells
[24] = target: Histone-lysine N-methyltransferase EZH2 (Mus musculus) (UniProt Q61188); assay: Inhibition of EZH2 in mouse B16-F1 migrating cells assessed as fold change in H3K27me3-buffered regulated Frmd6-mRNA expression at 3 uM measured by ChIP-seq analysis relative to control cells
[25] = target: Histone-lysine N-methyltransferase EZH2 (Mus musculus) (UniProt Q61188); assay: Inhibition of EZH2 in mouse B16-F1 migrating cells assessed as fold change in H3K27me3-buffered regulated Nudt18-mRNA expression at 3 uM measured by ChIP-seq analysis relative to control cells
[26] = target: Histone-lysine N-methyltransferase EZH2 (Mus musculus) (UniProt Q61188); assay: Inhibition of EZH2 in mouse B16-F1 migrating cells assessed as fold change in H3K27me3-buffered regulated Gm37422-mRNA expression at 3 uM measured by ChIP-seq analysis relative to control cells
[27] = target: Histone-lysine N-methyltransferase EZH2 (Mus musculus) (UniProt Q61188); assay: Inhibition of EZH2 in mouse B16-F1 migrating cells assessed as fold change in H3K27me3-buffered regulated Ccdc142-mRNA expression at 3 uM measured by ChIP-seq analysis relative to control cells
[28] = target: Histone-lysine N-methyltransferase EZH2 (Mus musculus) (UniProt Q61188); assay: Inhibition of EZH2 in mouse B16-F1 migrating cells assessed as fold change in H3K27me3-dependent regulated Ppm1e-mRNA expression at 3 uM measured by ChIP-seq analysis relative to control cells
[29] = target: Histone-lysine N-methyltransferase EZH2 (Mus musculus) (UniProt Q61188); assay: Inhibition of EZH2 in mouse B16-F1 migrating cells assessed as fold change in H3K27me3-buffered regulated Gab1-mRNA expression at 3 uM measured by ChIP-seq analysis relative to control cells
[30] = target: Histone-lysine N-methyltransferase EZH2 (Mus musculus) (UniProt Q61188); assay: Inhibition of EZH2 in mouse B16-F1 migrating cells assessed as fold change in H3K27me3-buffered regulated Msmo1-mRNA expression at 3 uM measured by ChIP-seq analysis relative to control cells

For `OC[C@H]1O[C@@H](n2cnc3cc(Cl)c(Cl)cc32)[C@H](O)[C@@H]1O`, the log2FC [1] was -0.67, the log2FC [2] was -0.54 and the log2FC [3] was -0.56. For the same compound, the log2FC [4] was -0.69, the log2FC [5] was -0.59 and the log2FC [6] was -0.45. The log2FC [7] was -0.57, the log2FC [8] was -0.64 and the log2FC [9] was 0.45. The log2FC [10] was -0.64, the log2FC [11] was 0.62 and the log2FC [12] was -0.59. The log2FC [13] was -0.46, the log2FC [14] was -0.62 and the log2FC [15] was -0.63. For the same compound, the log2FC [16] was 1.12, the log2FC [17] was 0.38 and the log2FC [18] was 1.18. For the same compound, the log2FC [19] was -0.46 and the log2FC [20] was 0.6.

Compound `CCCc1cc(C)[nH]c(=O)c1CNC(=O)c1cc(-c2ccnc(N3CCN(C)CC3)c2)cc2c1cnn2C(C)C` has a log2FC [21] of -0.59, a log2FC [22] of -0.48 and a log2FC [23] of -0.49. For the same compound, the log2FC [24] was -0.56, the log2FC [25] was 0.42 and the log2FC [26] was -0.61. For the same compound, the log2FC [27] was -0.94, the log2FC [28] was 0.56 and the log2FC [29] was -0.5. It also gave a log2FC [30] of 0.51.
